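Plate-reader measure of the Venus reporter marking one vaccinia stage in infected cells (the cell line is not named here); read time unknown. The test concentration is not given here. Percent change in Venus reporter signal; lower (more negative) values mean stronger inhibition of that viral stage.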

Values are in %. How 0% and 100% were set is not given here. Common to all entries: measured here: Venus reporter, other viral stage. Part of the compounds only, not a random draw; the main read-out is not listed here.

| structure | activity change (Venus) (%) |
|---|---|
| `O=S(=O)(c1ccc(F)cc1)N1C[C@H]2[C@@H](c3ccccc31)[C@@H](CO)N2Cc1ccccc1Cl` | -24.25 |
| `COc1ccc(NC(=O)Nc2ccc3c(c2)C(=O)N([C@@H](C)CO)C[C@H](C)[C@H](CN(C)Cc2ccc4c(c2)OCO4)OCCCC[C@@H](C)O3)cc1` | -21.37 |
| `COc1ccc(NC(=O)Nc2ccc3c(c2)C(=O)N([C@@H](C)CO)C[C@@H](C)[C@H](CN(C)Cc2ccc(C(F)(F)F)cc2)O3)cc1` | -43.8 |
| `Cc1ccc(S(=O)(=O)Nc2ccc3c(c2)C(=O)N([C@H](C)CO)C[C@@H](C)[C@H](CN(C)S(=O)(=O)c2ccc(Cl)cc2)OCCCC[C@H](C)O3)cc1` | -40.11 |
| `COc1ccc2c3c(n(C)c2c1)[C@H](CO)N(C(=O)C1CC1)CC31CN(Cc2ccccc2OC)C1` | -42.3 |
| `C[C@@H]1CN([C@H](C)CO)S(=O)(=O)c2ccc(C#Cc3ccccc3F)cc2O[C@H]1CN(C)C(=O)c1ccc2c(c1)OCO2` | -42.99 |
| `C[C@H](CO)N1C[C@H](C)[C@@H](CN(C)Cc2ccc(Cl)c(Cl)c2)Oc2ccc(NC(=O)CCC(F)(F)F)cc2CC1=O` | -49.44 |
| `C[C@@H]1CN([C@H](C)CO)C(=O)c2c(c3ccccc3n2C)-c2ccccc2CO[C@@H]1CN(C)C(=O)N[C@H](C)c1ccccc1` | -35.08 |
| `O=C(C[C@H]1CC[C@H]2[C@@H](COC[C@H](O)CN2C(=O)c2ccccc2F)O1)NCc1ccc(-c2ccccc2)cc1` | -30.65 |
| `Cc1noc(C)c1S(=O)(=O)Nc1ccc2c(c1)C(=O)N([C@H](C)CO)C[C@@H](C)[C@H](CN(C)Cc1ccc3c(c1)OCO3)OCCCC[C@H](C)O2` | -59.82 |
| `C[C@H](CO)N1C[C@H](C)[C@@H](CN(C)S(=O)(=O)c2ccc(F)cc2)OCCCC[C@H](C)Oc2ccc(NS(=O)(=O)c3cccs3)cc2C1=O` | -21.8 |
| `O=C(Nc1ccc(F)cc1)N1CC(=O)N2[C@@H](CO)[C@H](c3ccc(C#Cc4ccc(F)cc4)cc3)[C@@H]2C1` | -62.02 |
| `C[C@@H]1CN([C@@H](C)CO)C(=O)Cc2cc(N(C)C)ccc2O[C@H]1CN(C)Cc1ccc(C(F)(F)F)cc1` | -50.09 |
| `COc1ccc(S(=O)(=O)Nc2ccc3c(c2)CC(=O)N([C@H](C)CO)C[C@H](C)[C@@H](CN(C)CC2CCCCC2)O3)cc1` | -49.67 |
| `C[C@H]1CN([C@@H](C)CO)C(=O)Cc2cc(NS(=O)(=O)c3cccs3)ccc2O[C@@H]1CN(C)Cc1ccc(Cl)c(Cl)c1` | -52 |
| `O=C1CN(S(=O)(=O)Cc2ccccc2)C[C@H]2[C@H](c3ccc(C#Cc4ccccc4)cc3)[C@@H](CO)N12` | -39.39 |
| `CN1C(=O)c2cc(NC(=O)c3ccc(F)cc3)ccc2OC[C@H]2O[C@H](CC(=O)NCC3CCCCC3)CC[C@H]21` | -43.3 |
| `Cc1ccc(S(=O)(=O)N(C)C[C@H]2OCCCC[C@H](C)Oc3ccc(NS(=O)(=O)c4c(C)noc4C)cc3C(=O)N([C@@H](C)CO)C[C@@H]2C)cc1` | -40.17 |
| `O=C(c1ccc2c(c1)OCO2)N1CC(=O)N2[C@H](CO)[C@H](c3ccc(C#CCC4CCCC4)cc3)[C@H]2C1` | -91.38 |
| `Cc1noc(C)c1NC(=O)N(C)C[C@H]1Oc2cc(C#CCC3CCCC3)ccc2S(=O)(=O)N([C@@H](C)CO)C[C@H]1C` | -52.8 |
| `C[C@@H]1CN([C@@H](C)CO)C(=O)Cc2cc(NS(C)(=O)=O)ccc2O[C@H]1CN(C)Cc1ccc(-c2ccccc2)cc1` | -58.92 |
| `COc1ccc(S(=O)(=O)Nc2ccc3c(c2)C(=O)N([C@@H](C)CO)C[C@H](C)[C@H](CN(C)Cc2ccc(C(F)(F)F)cc2)OCCCC[C@H](C)O3)cc1` | -68.09 |
| `C[C@H](CO)N1C[C@H](C)[C@@H](CN(C)Cc2cccnc2)Oc2cc(C#CC3CCCCC3)ccc2S1(=O)=O` | -68.31 |
| `O=C(CC1CC1)N1CC(=O)N2[C@H](C1)[C@@H](c1ccc(C#Cc3cccc(F)c3)cc1)[C@@H]2CO` | -46.19 |
| `C[C@H]1CN([C@@H](C)CO)S(=O)(=O)c2ccc(C3=CCCC3)cc2O[C@@H]1CN(C)C(=O)C1CCCCC1` | -32.52 |
| `O=C(Cc1ccccc1)N1CCCCN2[C@H](CO)[C@@H](c3ccc(C#Cc4ccccc4)cc3)[C@@H]2C1` | -34.13 |
| `Cc1ccc(S(=O)(=O)Nc2ccc3c(c2)CC(=O)N([C@@H](C)CO)C[C@H](C)[C@@H](CN(C)Cc2ccc(Cl)c(Cl)c2)O3)cc1` | -38.03 |
| `C/C=C/c1ccc([C@H]2[C@@H](CO)N(CC3CCCCC3)[C@@H]2CNC(C)C)cc1` | -10.71 |
| `CCC(=O)N1CC2(CN(Cc3ccc(Cl)cc3)C2)c2c([nH]c3cc(OC)ccc23)[C@@H]1CO` | -43.51 |
| `O=C(Nc1ccc(Cl)cc1)N1C[C@@H]2[C@H](c3ccccc31)[C@H](CO)N2CC1CCCCC1` | -29 |
| `COc1ccc(NC(=O)Nc2ccc3c(c2)C(=O)N([C@@H](C)CO)C[C@@H](C)[C@@H](CN(C)Cc2ccc4c(c2)OCO4)OCCCC[C@@H](C)O3)cc1` | -51.85 |
| `C[C@@H]1CCCCO[C@@H](CN(C)S(=O)(=O)c2ccc(Cl)cc2)[C@@H](C)CN([C@@H](C)CO)C(=O)c2cc(NC(=O)Nc3ccc(F)cc3)ccc2O1` | 2.048 |
| `C[C@H](CO)N1C[C@H](C)[C@@H](CN(C)Cc2ccc3c(c2)OCO3)Oc2ccc(NS(=O)(=O)c3ccc(F)cc3)cc2CC1=O` | -32.56 |
| `COc1cccc(C#Cc2ccc([C@H]3[C@H]4CN(C(=O)Cc5cccnc5)CC(=O)N4[C@H]3CO)cc2)c1` | -40.28 |
| `Cc1cccc(-c2ccc([C@@H]3[C@H](CO)N4CCCCN(S(=O)(=O)c5cccc(C)c5)C[C@@H]34)cc2)c1` | -41.8 |
| `O=C(NC[C@@H]1N[C@@H](CO)[C@@H]1c1ccc(C2=CCCC2)cc1)c1ccccc1` | -2.67 |
| `CN1CCCCN2[C@H](CO)[C@@H](c3ccc(C#Cc4ccccc4F)cc3)[C@H]2C1` | -43.14 |
| `CO[C@@H]1CN(C)C(=O)c2cc(NC(=O)c3nc4ccccc4s3)ccc2OC[C@H](C)N(Cc2ccncc2)C[C@H]1C` | -23.96 |
| `C[C@H](CO)N1C[C@H](C)[C@@H](CN(C)CC2CCCCC2)Oc2ccc(NS(=O)(=O)c3ccc(Cl)cc3)cc2CC1=O` | -32.12 |
| `Fc1ccc(CN2[C@@H]3CNC[C@H]2C3c2ccc(-c3ccncc3)cc2)cc1` (stereo not given in full) | -35.43 |
| `CCCC#Cc1ccc([C@@H]2[C@H]3CN(C(=O)c4ccc5c(c4)OCO5)CCCCN3[C@H]2CO)cc1` | -65.31 |
| `C[C@@H]1CN([C@H](C)CO)C(=O)c2cc(NC(=O)C3CC3)ccc2O[C@H]1CN(C)Cc1ccc(Cl)c(Cl)c1` | -23.93 |
| `C[C@H]1CN([C@@H](C)CO)S(=O)(=O)c2ccc(C#CCC3CCCC3)cc2O[C@H]1CN(C)C(=O)c1cnccn1` | -38.41 |
| `CCCN(C)C[C@H]1OCCCC[C@H](C)Oc2ccc(NS(=O)(=O)c3ccc(C)cc3)cc2C(=O)N([C@@H](C)CO)C[C@@H]1C` | -26.15 |
| `C[C@H]1CCCCO[C@H](CN(C)C(=O)CCC(F)(F)F)[C@@H](C)CN([C@@H](C)CO)C(=O)c2cc(NC(=O)Nc3ccc4c(c3)OCO4)ccc2O1` | -28.2 |
| `C[C@H]1CN([C@@H](C)CO)S(=O)(=O)c2ccc(C3=CCCCC3)cc2O[C@H]1CN(C)Cc1cccnc1` | -45.94 |
| `C[C@@H]1CN([C@@H](C)CO)C(=O)c2ccccc2-c2ccccc2CO[C@H]1CN(C)Cc1ccccc1C(F)(F)F` | -81.52 |
| `C[C@H]1CN([C@@H](C)CO)C(=O)c2c(c3ccccc3n2C)-c2ccccc2CO[C@@H]1CN(C)C(=O)[C@H]1CCCN1C` | -26.69 |
| `CC(=O)N(C)C[C@H]1Oc2cc(C#CC3CCCCC3)ccc2S(=O)(=O)N([C@@H](C)CO)C[C@H]1C` | -31.94 |
| `C[C@@H]1CCCCO[C@H](CN(C)Cc2ccccc2)[C@@H](C)CN([C@@H](C)CO)C(=O)c2cc(NC(=O)Nc3cccc4ccccc34)ccc2O1` | -44.76 |
| `O=C(Nc1cccc(F)c1)N1CCCCN2[C@H](CO)[C@H](c3ccc(C#Cc4cccnc4)cc3)[C@H]2C1` | -38.54 |
| `C[C@H](CO)N1C[C@H](C)[C@@H](CN(C)S(=O)(=O)c2ccc(Cl)cc2)Oc2c(NS(=O)(=O)c3cn(C)cn3)cccc2C1=O` | -22.69 |
| `C[C@H]1CCCCO[C@H](CN(C)C(=O)Nc2cccc3ccccc23)[C@@H](C)CN([C@@H](C)CO)C(=O)c2cc(N(C)C)ccc2O1` | -35.43 |
| `C[C@@H]1CN([C@@H](C)CO)C(=O)c2cc(NC(=O)Nc3ccc4c(c3)OCO4)ccc2O[C@@H](C)CCCCO[C@H]1CN(C)Cc1ccccc1` | -45.4 |
| `C[C@H](CO)N1C[C@H](C)[C@H](CN(C)S(=O)(=O)c2ccc(F)cc2)OCCCC[C@H](C)Oc2ccc(NS(=O)(=O)c3ccccc3)cc2C1=O` | -39.63 |
| `CCC(=O)N1CC(=O)N2[C@H](C1)[C@H](c1ccc(C#Cc3cccc(OC)c3)cc1)[C@@H]2CO` | -70.1 |
| `CCC(=O)N(C)C[C@H]1Oc2cc(C#CCC3CCCC3)ccc2S(=O)(=O)N([C@@H](C)CO)C[C@H]1C` | -34.41 |
| `C[C@@H]1CN([C@@H](C)CO)S(=O)(=O)c2ccc(C#Cc3ccncc3)cc2O[C@H]1CN(C)C(=O)Nc1ccc2c(c1)OCO2` | -71.35 |
| `C[C@@H]1CCCCO[C@@H](CN(C)Cc2ccccc2)[C@H](C)CN([C@H](C)CO)C(=O)c2cc(NC(=O)C3CCCCC3)ccc2O1` | -47.29 |

Data taken from PubChem BioAssay AID1053133, deposited by Broad Institute (2014).